Results taken from the supplement of paper PMC8497498.
± gives the standard deviation of the averaged measurements. The list shows a part of the results. The data scatter; read single values as rough.

Tests used:
Conditions in all cases: 10 µM
[1] = system: Plasmodium vivax liver stage (primary human hepatocyte culture); test: hypnozoite quantity inhibition (% inhibition); higher = more active against hypnozoites
[2] = system: Plasmodium vivax liver stage (primary human hepatocyte culture); test: schizont net growth area inhibition (% inhibition); higher = more active against liver schizonts
[3] = system: primary human hepatocytes; test: hepatic nuclei reduction relative to DMSO (100 - % of negative control); higher = more toxic to hepatocytes
[4] = assay mode: Prophylactic (treated before or shortly after infection), fixed day 6 post-infection
[5] = assay mode: Radical Cure (treated from day 5 post-infection for 3 days), fixed day 8 post-infection

SMILES | hypnozoite quantity inhibition [1, 4] | hypnozoite quantity inhibition [1, 5] | schizont net growth area inhibition [2, 4] | schizont net growth area inhibition [2, 5] | hepatic nuclei reduction [3, 4] [%] | hepatic nuclei reduction [3, 5] [%]
Nc1c2c(nc3sc4c(c13)CCCC4)CCCC2 | -3 | -23 | 38.2 | -6.9 | -1 | 3
c1cc(C2CCC3(CC2)OOC2(O3)C3CC4CC(C3)CC2C4)ccc1OCCN1CCOCC1 (configuration not stated) | -22 | 26 | -1.3 | 28 | -5 | -2
CC1COC(Cn2cncn2)(c2ccc(Oc3ccc(Cl)cc3)cc2Cl)O1 (configuration not stated) | -3 | 14 | -2.6 | -159 | -12 | -7
Oc1ccc(C(=C(Cl)Cl)c2ccc(O)cc2)cc1 | -27.3 | 49.6 | 17.3 | 18.9 | -5 | 1
CCCc1cc(O)c2c3c(c(=O)oc2c1)CN(C)CC3 | -58.6 | 35.9 | -13.4 | 43.8 | -6 | -2
CC1(C)OB(O)c2ccc(C3=NOC(c4cc(Cl)c(F)c(Cl)c4)(C(F)(F)F)C3)cc21 (configuration not stated) | 46 | -28 | 26.4 | -96.9 | 3 | -5
CN(N=O)C1=C(NC2CCCCC2)C(=O)c2ccccc2C1=O | 12.1 | 29 | -54.4 | -25.2 | -18 | 0
CC1CC(C)C(=O)C(C(O)CC2CC(=O)NC(=O)C2)C1 (configuration not stated) | 80 | -20.4 ± 73 | 102 | 96.4 ± 0.57 | -10 | 21 ± 23
O=C1O[C@@H](COc2ccon2)CN1c1cc(F)c(C2=CCN(Cc3ccccc3)CC2)c(F)c1 | 21 | 12 | -102 | 14.4 | -7 | -9
CCc1nn(C)c(C(=O)NCc2ccc(Oc3ccc(C)cc3)cc2)c1Cl | -144 | 11 | 97.1 | 8.3 | 2 | 0
CC(C)(N)CNC(=O)CC1CCC2(CC1)OOC1(O2)C2CC3CC(C2)CC1C3 (configuration not stated) | -31 | 26 | 72.2 | 5.8 | 0 | -1
CCOc1c(Cl)cc(CNC(C)C(O)c2ccccc2)cc1OC (configuration not stated) | -3.5 | 47.3 | -9.7 | 49.8 | -14 | 1
CO[C@@H]1CN(c2ccc(C#CC3(O)CN4CCC3CC4)c(Cc3ccccc3)n2)C[C@H]1O (some centres not stated) | -15 | 14 | -26.2 | 53.2 | -1 | -1
CC12CCC3C(CC=C4CC(OS(=O)(=O)O)CCC43C)C1CCC2=O (configuration not stated) | -3 | 34 | 27.7 | 52.4 | -7 | 1
Cc1cc(C2=NOC(c3cc(Cl)c(F)c(Cl)c3)(C(F)(F)F)C2)ccc1C(=O)NCc1ccc2c(c1)C(C)(C)OB2O (configuration not stated) | 15 | 1 | 30 | -162 | -6 | -12
Cc1cccc(C(=O)Nc2ccnc(N(C)C3CCN(CC(C)C)CC3)c2)c1 | -21 | -44 | 60.2 | -14 | 0 | 0

SMILES | hypnozoite quantity inhibition [1, 4] | hypnozoite quantity inhibition [1, 5] | schizont net growth area inhibition [2, 4] | schizont net growth area inhibition [2, 5] | hepatic nuclei reduction [3, 4] [%] | hepatic nuclei reduction [3, 5] [%]
Oc1ccc(Br)cc1CN1CCN(Cc2cccc(F)c2)CC1 | -41.4 | 38.2 | -63.2 | 15.4 | -8 | 4
CC1CCC2C(C)C(=O)OC3OC4(C)CCC1C32OO4 (configuration not stated) | -55 | 34 | 18.4 | 50.2 | -20 | -1
COc1cc(CNCCc2ccc(Cl)cc2)cc(OC)c1O | 11.4 | -52.5 | 40 | -34 | -1 | -12
O=C(CCc1ccco1)NC1CCN(CC2(c3ccc(Cl)cc3)CCC2)CC1 | 4.4 | -11.7 | -65.3 | -30 | -5 | -4
CC1CCC2C(C)C(N3CCS(=O)(=O)CC3)OC3OC4(C)CCC1C32OO4 (configuration not stated) | -55 | 12 | -58.2 | -0.7 | -11 | -2
O=C1O[C@@H](CO)CN1c1cc(F)c(C2=CCN(Cc3ccccc3)CC2)c(F)c1 | -19 | 16 | -20 | -6.4 | -5 | -2
Cc1nn(Cc2ccccc2)c(Cl)c1C(=O)NC1CCCCCC1 | 11 | -4 | -2.7 | -152 | -4 | 1
Oc1ccc(Br)cc1CN1CCN(Cc2ccc(Cl)cc2)CC1 | 1.9 | 4.7 | 8.1 | -24.2 | -1 | -7
Cc1nn(C)c(C)c1NS(=O)(=O)c1c(Cl)cc(-c2ccnc(N3CCNCC3)c2)cc1Cl | -35 | -4 | 102 | -89.7 | -4 | -5
CO/N=C(\C(=O)OC)c1ccccc1CO/N=C(\C)c1cccc(C(F)(F)F)c1 | -28 | -10 | -6 | 40.2 | -8 | 1
COc1ccc(CN2CCN(Cc3ccccc3)CC2)c(O)c1 | 31.6 | -6.2 | 37.8 | -64.2 | -5 | -2
CC(C)(C)C(O)C(Oc1ccc(-c2ccccc2)cc1)n1cncn1 (configuration not stated) | -55 | -10 | -30.7 | -190 | -10 | -2
CO/C=C(/C(=O)OC)c1ccccc1Oc1cc(Oc2ccccc2C#N)ncn1 | 11 | -2 | 37.2 | -50.7 | 5 | -2
CCCCCCc1cc(O)c2c3c(c(=O)oc2c1)CCC(C)C3 (configuration not stated) | 7.6 | 29.2 | 5.3 | -24.4 | -4 | 1
CCOc1cc(CNC(C)C(O)c2ccccc2)cc(Cl)c1OCC (configuration not stated) | -56.3 | 19.8 | -15.1 | 56.8 | -2 | -4
COc1ccccc1CN[C@H]1C2CCN(CC2)[C@H]1C(c1ccccc1)c1ccccc1 | 3 | 7 | 21.2 | -64.1 | -3 | 1

Another view of some results above.
SMILES	hypnozoite quantity inhibition [1, 4]	hypnozoite quantity inhibition [1, 5]	schizont net growth area inhibition [2, 4]	schizont net growth area inhibition [2, 5]	hepatic nuclei reduction [3, 4] [%]	hepatic nuclei reduction [3, 5] [%]
COc1ccc(CN2CCN(Cc3ccccc3)CC2)c(O)c1	31.6	-6.2	37.8	-64.2	-5	-2
CC(C)(C)C(O)C(Oc1ccc(-c2ccccc2)cc1)n1cncn1 (configuration not stated)	-55	-10	-30.7	-190	-10	-2
CO/C=C(/C(=O)OC)c1ccccc1Oc1cc(Oc2ccccc2C#N)ncn1	11	-2	37.2	-50.7	5	-2
CCCCCCc1cc(O)c2c3c(c(=O)oc2c1)CCC(C)C3 (configuration not stated)	7.6	29.2	5.3	-24.4	-4	1
CCOc1cc(CNC(C)C(O)c2ccccc2)cc(Cl)c1OCC (configuration not stated)	-56.3	19.8	-15.1	56.8	-2	-4
COc1ccccc1CN[C@H]1C2CCN(CC2)[C@H]1C(c1ccccc1)c1ccccc1	3	7	21.2	-64.1	-3	1
